Test results reported in paper PMC8945002.
No constants are given. Whether binding was seen depends on the method and setting.

Molecular target: T1, recombinant FtnA (FtnArec), 24-mer (P. aeruginosa PAO1) (UniProt Q9HWF9)
T1 sequence: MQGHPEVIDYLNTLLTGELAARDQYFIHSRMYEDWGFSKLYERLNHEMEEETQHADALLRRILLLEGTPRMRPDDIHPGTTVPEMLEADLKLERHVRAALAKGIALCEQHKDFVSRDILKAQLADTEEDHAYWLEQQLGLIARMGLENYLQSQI
Experiment: SPR; Biacore X100, 25 °C; Bfr or FtnArec immobilised on CM5 chips by amine coupling (100 nM in 10 mM sodium acetate pH 5.0); Bfd 0-40 μM flowed at 5 µL/min in PBS pH 7.4 with 1 mM TCEP; steady-state analysis, steric factor n set to 0.91; both purified

B1: bacterioferritin-associated ferredoxin (Bfd) (protein, UniProt Q9HY80 1-73)
chain: MYVCLCQGVTDNQIRDAIYEGCCSYREVREATGVGTQCGKCACLAKQVVRETLNDLQSAQPVPAFGTTAFVAA
For B1, the binding was “no binding (tested: 40 μM)”.
